Experimental findings from paper PMC6509284, “Aurora B-INCENP Localization at Centromeres/Inner Kinetochores Is Required for Chromosome Bi-orientation in Budding Yeast” (Current Biology, 2019) are described below.

By UniProt entry, the sequences of proteins in these tests, tags left out. Where a name states a change or a piece, a line headed by the entry shows the natural chain unless it says otherwise.
UniProt Q06675: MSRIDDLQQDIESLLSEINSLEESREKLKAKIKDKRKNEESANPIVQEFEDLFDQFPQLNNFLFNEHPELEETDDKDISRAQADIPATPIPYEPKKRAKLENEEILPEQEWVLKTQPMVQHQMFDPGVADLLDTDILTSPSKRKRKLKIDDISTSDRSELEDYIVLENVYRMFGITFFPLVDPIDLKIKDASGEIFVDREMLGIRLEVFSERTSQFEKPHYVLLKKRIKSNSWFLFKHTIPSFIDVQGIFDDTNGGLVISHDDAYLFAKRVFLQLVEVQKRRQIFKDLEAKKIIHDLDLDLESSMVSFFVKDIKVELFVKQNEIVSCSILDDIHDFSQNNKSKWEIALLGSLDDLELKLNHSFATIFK

No constants are given. Whether binding was seen depends on the method and setting. Some binding calls cover weakened binding; strength is not graded here. Tags and fused reporters may be left off the sequences shown.

Common to all, as to assay: two-hybrid; Gal4 activation domain (pGADT7) and Gal4 DNA-binding domain (pGBKT7) fusions co-transformed into yeast PJ69-4A; growth on SC lacking tryptophan, leucine, histidine and adenine; 30°C for 2 days
Experiment [1] has as its target T1, Sli15 fused to the Gal4 DNA-binding domain (budding yeast (S. cerevisiae)) (UniProt P38283).
T1 sequence: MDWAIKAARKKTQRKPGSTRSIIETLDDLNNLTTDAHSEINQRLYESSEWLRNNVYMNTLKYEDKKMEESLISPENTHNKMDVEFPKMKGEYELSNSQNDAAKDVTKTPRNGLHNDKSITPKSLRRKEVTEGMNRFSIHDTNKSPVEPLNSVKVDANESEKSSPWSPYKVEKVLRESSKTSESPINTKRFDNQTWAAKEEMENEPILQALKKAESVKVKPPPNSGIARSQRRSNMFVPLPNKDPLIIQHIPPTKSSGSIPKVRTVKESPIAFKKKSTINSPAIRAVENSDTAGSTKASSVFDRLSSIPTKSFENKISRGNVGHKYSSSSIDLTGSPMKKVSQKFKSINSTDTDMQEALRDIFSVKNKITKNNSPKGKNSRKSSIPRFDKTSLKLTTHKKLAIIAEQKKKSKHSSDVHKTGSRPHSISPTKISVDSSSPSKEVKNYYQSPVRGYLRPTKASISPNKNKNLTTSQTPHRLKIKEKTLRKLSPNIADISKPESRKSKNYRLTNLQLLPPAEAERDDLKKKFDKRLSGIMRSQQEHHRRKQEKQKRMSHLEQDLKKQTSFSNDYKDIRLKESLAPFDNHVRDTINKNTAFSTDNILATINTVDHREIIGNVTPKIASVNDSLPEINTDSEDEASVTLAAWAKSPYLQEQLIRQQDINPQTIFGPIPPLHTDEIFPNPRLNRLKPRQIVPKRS

Experiment [2] deals with T2, Sli15ΔN fused to the Gal4 DNA-binding domain (budding yeast (S. cerevisiae)) (UniProt P38283).
T2 sequence: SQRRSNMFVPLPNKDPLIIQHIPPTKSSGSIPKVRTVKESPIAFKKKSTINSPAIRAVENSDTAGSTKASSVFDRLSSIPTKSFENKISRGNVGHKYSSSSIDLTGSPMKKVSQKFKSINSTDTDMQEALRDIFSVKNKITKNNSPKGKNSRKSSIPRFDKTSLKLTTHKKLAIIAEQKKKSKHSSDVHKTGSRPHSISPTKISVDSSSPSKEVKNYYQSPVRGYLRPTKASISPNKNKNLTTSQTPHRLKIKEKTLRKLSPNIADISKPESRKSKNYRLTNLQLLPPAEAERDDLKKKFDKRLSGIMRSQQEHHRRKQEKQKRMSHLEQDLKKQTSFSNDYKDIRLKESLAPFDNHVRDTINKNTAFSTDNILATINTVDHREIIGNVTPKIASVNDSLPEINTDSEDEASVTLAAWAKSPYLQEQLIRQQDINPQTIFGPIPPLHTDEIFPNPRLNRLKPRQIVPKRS

Experiment [3] addresses T3, Inn1 fused to the Gal4 DNA-binding domain (budding yeast (S. cerevisiae)) (UniProt P53901).
T3 sequence: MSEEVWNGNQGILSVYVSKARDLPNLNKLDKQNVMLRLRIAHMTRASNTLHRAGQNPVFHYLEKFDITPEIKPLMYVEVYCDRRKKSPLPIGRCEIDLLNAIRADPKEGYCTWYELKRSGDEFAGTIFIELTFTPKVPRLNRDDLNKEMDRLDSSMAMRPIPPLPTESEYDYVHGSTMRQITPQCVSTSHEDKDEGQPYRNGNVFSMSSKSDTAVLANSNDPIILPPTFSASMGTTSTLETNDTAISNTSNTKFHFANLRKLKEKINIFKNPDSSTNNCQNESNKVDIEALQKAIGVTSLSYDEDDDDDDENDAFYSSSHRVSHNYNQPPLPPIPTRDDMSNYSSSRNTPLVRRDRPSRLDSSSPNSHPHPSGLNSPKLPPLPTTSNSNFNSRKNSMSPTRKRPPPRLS

“Mcm21 fused to the Gal4 transcriptional activation domain (from UniProt Q06675 1-368)”: the binding result in experiment [1] and in experiment [2] was “binds” each time. Turning to “Mcm21ΔN fused to the Gal4 transcriptional activation domain (from UniProt Q06675 51-368) (domain or fragment)”, the binding entry in experiment [1] is listed as “binds”.

B1: Hof1 fused to the Gal4 transcriptional activation domain (protein, UniProt Q05080 1-669)
chain: MSYSYEACFWDPNDNGVNILLGHISQGIRSCDSMILFFKQRSELEKDYARRLGAITGKLDKDIGTNMDYGKLNETFNVVLSVEKARAQSHSKQSEILFRQIYTDTKAFAANLQARYTTLSGKIERLRMDKFNKKKGCEVLQKKLQDAQIRFRDLQLNENNMIGAKRVEHNKRELLKWESNSQEYKVQLDVLKQEYKASQKFWIHEWAQLSCELQEMENARISFLQSKLQQFATSSMETYILEQTKMDMLTNHLNSFTAADEISTFSKENGTGRLKHKTSKGDMNSSANWAQMSSISTTSKKTESYMDNIRKLSSQLKETENKRKLASIDKYEKPLPSPEVTMATQFRNSTPVIRNETKVVANPTLSLRSSPVQLQSNVDDSVLRQKPDKPRPIVGEEQLKPDEDSKNPDEKGLMVHKRNQSLSSPSESSSSNPTDFSHIKKRQSMESMTTSVSSMANSIDDSQRFAKSWNSSNRKRKSMSHLQVPSSASSRSDDGGRTPNSAHNLNEDDYNTRRDTSTSTILFKPPVAVRGTSRGHTHRQSMIMQDSSNPIEDALYEMERIQSSSKPGTKTGNIMDERGVVRDRGITVTLPIVTSEGFPVIEYAKAMYPLIGNEAPGLANFHKGDYLLITEIVNKDWYKGEVYDNDRIDRNHRIGLIPYNFIQLLHQGL
In the case of B1, the binding result in experiment [3] is “binds”.
